Reference: US20230157281A1, “COMPOSITIONS AND METHODS FOR REPELLING ANIMALS FROM AN OBJECT” (Texas Tech University System, priority 2020, published 2023)
Like-named read-outs stand apart in the source and are kept apart here.

Legend:
[1] = GC-MS identification and quantification of volatiles in cat feces; settings: for Peak area ratio of volatile in feces: peak area / internal standard; for Estimated concentration in cat feces, 95% confidence interval: dry matter
[2] = GC-MS identification and quantification of volatiles in cat urine; settings: for Peak area ratio of volatile in urine: peak area / internal standard; for Estimated concentration in cat urine, 95% confidence interval: N=7
[3] = cited from earlier work

| Compound | Peak area ratio of volatile in feces ([1]; intact female cats (N=8)) | Peak area ratio of volatile in feces ([1]; intact male cats (N=10)) | also measured |
| --- | --- | --- | --- |
| c1ccc2[nH]ccc2c1 [1-H indole] | 0.24 | 0.22 |  |
| O=C1CCC=CN1 [2,3-Dethydropiperidin-6-one] |  |  | Peak area ratio of volatile in urine ([2]; intact female cats (N=7)): 0.06; Peak area ratio of volatile in urine ([2]; intact male cats (N=7)): 0.08 |
| Cc1ccc(C=O)c(C)c1 [2-4-Dimethyl-Benzaldehyde] |  |  | Peak area ratio of volatile in urine ([2]; intact female cats (N=7)): 0.11; Peak area ratio of volatile in urine ([2]; intact male cats (N=7)): 0.09 |
| O=C1CCCCN1 [2-Piperidinone] | 0.25 | 0.20 |  |
| CC(C)CC(O)CC(C)C [4-Heptanol, 2,6-Dimethyl] |  |  | Peak area ratio of volatile in urine ([2]; intact female cats (N=7)): 0.06; Peak area ratio of volatile in urine ([2]; intact male cats (N=7)): 0.24 |
| Cc1ncsc1CCO [4-Methyl-5-thiazoleethanol] | 0.02 | 0.02 |  |
| CCCCCCCC/C=C\CCCCCCCC(=O)OCC [9-Octadecenoic acid (z)-athyl ester] | 0.13 | 0.04 |  |
| CC(=O)O [Acetic acid] | 0.40 | 0.52 |  |
| CCCC(=O)O [Butanoic acid/butyric acid, Butanoic acid] | 2.78 | 4.85 | higher in the feces of males than females ([1]; abstract of Example 1, P=0.02 (concentration, Table 6)): 98%; higher in male feces than in female feces ([1]; discussion, matches peak area ratio of Table 5): 74.5%; Estimated concentration in cat feces, 95% confidence interval ([1]; female cats, N=8): 5050-18348 μg/g DM; Estimated concentration in cat feces, 95% confidence interval ([1]; male cats, N=10): 16271-30090 μg/g DM |
| CCCCCCCCCCCCCCCCCCOC(=O)OCC [Carbonic acid, ethyl octadecyl ester] | 0.31 | 0.29 |  |
| CC/C=C\CC1=C(C)CCC1=O [Cis-Jasmone] |  |  | Peak area ratio of volatile in urine ([2]; intact female cats (N=7)): 0.09; Peak area ratio of volatile in urine ([2]; intact male cats (N=7)): 0.04 |
| CCCCCCCCCCCCCCCC(=O)OCC [Hexadecanoic acid, ethyl ester] | 0.09 | 0.08 |  |
| CCCCCCCCCCCCCCCC(=O)O [Hexadecanoic acid] | 0.15 | 0.15 |  |
| CCCCCC/C=C/CCCCCCCCO [Hexadecen-1-ol, trans-9-] | 0.16 | 0.12 |  |
| CCCCCC(=O)O [Hexonoic acid] | 1.22 | 0.93 |  |
| CCCCC/C=C/C/C=C/CCCCCCCC(=O)O [Lenoelaidic acid] | 0.40 | 0.52 |  |
| CC(C)(S)CCO [MMB, 3-Mercapto-3-Methyl Butanol] |  |  | level in cat feces ([3]; intact males): 50 ng/g wet feces; higher concentration in the urine of males than females ([2]; P<0.001): seven; Estimated concentration in cat urine, 95% confidence interval ([2]; female cats): 0.00 to 1.63 µg/mL; quantity estimated in urine, on average ([2]; intact female cat): 0.81 ppm; Peak area ratio of volatile in urine ([2]; intact female cats (N=7)): 0.02; quantity estimated in urine, on average ([2]; intact male cat): 6.60 ppm; Peak area ratio of volatile in urine ([2]; intact male cats (N=7)): 0.14; Estimated concentration in cat urine, 95% confidence interval ([2]; male cats): 2.22 to 10.99 µg/mL |
| CCCCCCCC/C=C\CCCCCCCC(=O)O [Oleic acid/8-Octadecenoc acid, Oleic acid] | 1.76 | 2.41 |  |
| CCCCC(=O)O [Pentanoic acid] | 2.40 | 2.81 |  |
| O=C(O)C(C(=O)O)c1ccccc1 [Propanedioic acid, phenol] | 0.23 | 0.44 |  |
| CCC(=O)O [Propanoic acid] | 0.66 | 0.56 |  |
| CC(C)(CCO)SC[C@H](N)C(=O)O [felinine, reference compound] |  |  | excretion rate in the urine ([3]; intact female cats): 19 mg/day; excretion rate in the urine ([3]; sex not given, compared with intact female cats (male cats implied)): 95 mg/day |
| Q-Docecalactone | 0.01 | 0.02 |  |
